Assay results published in patent publication US20160207996A1 (ARGEN X N V, published 2016).
Changes are numbered by the printed parent chain. No constants are given. Whether binding was seen depends on the method and setting.

B1: mAb 6A1 (antibody, IgG1, V domains shown)
VH: EVQLVESGGGLVQPGGSLRLSCAASGFTFSRNAMTWVRQAPGKGLEWVSAISSTGNSITEADSVKGRFTISRDNAKNMLYLQMNSLKPEDTAVYYCAKLGGDTWYMEYWGQGTQVTVSS
VL: SYELTQSPSMSVALRQTAKITCGGNNIGSKSAQWYQQKPGQAPVLVIYADNRRPSGIPERFSGSNSGNTATLTISGAQAEDEADYYCQVWDSSANAVFGRGTHLTVLG
B2: mAb 6A5 (antibody, IgG1, V domains shown)
VH: EVQLQESGGGSVQPGGSLRLSCAASGFTFSANAMTWVRQAPGKGLEWVSAISGTGASTSYADSVKGRFTVSRDNAKNTLYLQVNNLKPEDTAVYRCAKLGGDTWYMEYWAKGTLVTVSS
VL: SYELTQSPSVSVALRQTAKITCGGDNIGSKYVNWYQQKPSQTPVLVIYKDSNRPSGIPERFSGSNSGNTAALTISGAQAEDEADYYCQVWDGSAAVFGGGTHLSVLG
B3: mAb 6B3 (antibody, IgG1, V domains shown)
VH: QLQVVESGGGLVQPGGSLRLSCAASGFTFSTYVMSWVRQAPGKGLEWVSGINSGGGSTSYADSVKGRFTISRDNAKNTLYLQMNSLKPEDTAVYYCAKVGDGSAWYYYYGMDYWGQGTQVTVSS
VL: SSALTQPSAVSVSLGQTARITCQGGNLDGYYHAWYQQKPGQAPVQVIFGNNNRPSGIPERFSGSSSGGTTTLTISGAQAEDEADYYCQSYENSGYNIVFGGGTHLTVLG
B4: mAb 6B7 (antibody, IgG1, V domains shown)
VH: B1 VH with E1Q, V2L, R31S
VL: SSALTQPSAVSVSLGQTARITCQGDNFGSIDPHWYQQKPGQDPVVVIYQYNNRPSGIPERFSGLKSGNTATLIISGAQAEDEADYYCQLWDSRAKAVFGGGTHLTVLG
B5: mAb 6D8 (antibody, IgG1, V domains shown)
VH: B1 VH with E1Q, V2L, R31S
VL: SYELTQSPSVSVALRQTAKITCGGNGIGSKIVHWYQQKPGQAPVLVIYADVRRPSEIPERFSGSNSGDTATLTVSGAQAEDEADYYCQVWDSSANAAVFGGGTHLTVLG

Legend:
CXCR4 [1] = assay: mAb binding ELISA, lipoparticles coated at 10 U/well, A450 [upper chart]
CXCR4 [2] = assay: mAb binding ELISA, lipoparticles coated at 10 U/well, A450 [lower chart]

binding (CXCR4 [1]) | binding (CXCR4 [2]) | Binder
no binding (tested: 1 µg/ml) | – | B1
no binding (tested: 1 µg/ml) | – | B2
no binding (tested: 1 µg/ml) | – | B3
– | no binding (tested: 1 µg/ml) | B4
– | no binding (tested: 1 µg/ml) | B5
